Experimental data reported in US7405201B2 (Bayer Healthcare AG, priority 2001, dated 2008).

Assay: general procedure: solution-phase peptide synthesis; TPTU/HOBT/ethyldiisopropylamine; HATU/ethyldiisopropylamine; EDC/pentafluorophen
[1] = late stage modification step, chloride

Row | Substance | step yield (coupling step) | step yield (late stage modification step) | further results
1 | 3-Cyclohexyl-2-propenoic acid [(S)-2-(3,5-difluorophenyl)-1-((3S,9S,13S,15R,19S,22S)-15,19-Dimethyl-2,8,12,18,21-pentaoxo-11-oxa-1,7,17,20-tetraaza-tetracyclo [20.4.0.0^3,7.0^13,17] hexacos-9-ylcarbamoyl)-ethyl]-amide | 44% of th. |  | 
2 | 3-Cylcohexylpropanoic acid [(S)-2-(3,5-difluorophenyl)-1-((3S,9S,13S,15R,19S,22S)-15,19-Dimethyl-2,8,12,18,21-pentaoxo-11-oxa-1,7,17,20-tetraaza-tetracyclo[20.4.0.0^3,7.0^13,17] hexacos-9-ylcarbamoyl)-ethyl]-amide |  | 49% of th. | 
3 | (3S,7S,13S,16S,19S)-13,16,17-Trimethyl-2,6,12,15,18-pentaoxo-5-oxa-1,11,14,17-tetraaza-tricyclo[17.3.0.0^7,11]docos-3-yl-ammonium chloride |  |  | step yield [1]: 94% of th.
4 | (3S,9S,13S,15R,19S,22S)-15,19-Dimethyl-2,8,12,18,21-pentaoxo-11-oxa-1,7,17,20-tetraaza-tetracyclo[20.4.0.0^3,7.0^13,17]hexacos-9-yl-ammonium chloride |  |  | step yield [1]: 98% of th.
5 | (E)-Hept-2-enoic acid [(S)-2-(3,5-difluorophenyl)-1-((3S,7S,13S,16S,19S)-13,16,17-trimethyl-2,6,12,15,18-pentaoxo-5-oxa-1,11,14,17-tetraazatricyclo[17.3.0.0^7,11]docos-3-ylcarbamoyl)-ethyl]-amide |  | 56% of th. | 
6 | (E)-Hept-2-enoic acid [(S)-2-(3,5-difluorophenyl)-1-((3S,9S,13S,15R,19S,22S)-15,19-Dimethyl-2,8,12,18,21-pentaoxo-11-oxa-1,7,17,20-tetraaza-tetracyclo[20.4.0.0^3,7.0^13,17]hexacos-9-ylcarbamoyl)-ethyl]-amide |  | 62% of th. | 
7 | Benzyl ((3S,9S,13S,15R,19S,22S)-15,19-dimethyl-2,8,12,18,21-pentaoxo-11-oxa-1,7,17,20-tetraaza-tetracyclo[20.4.0.0^3,7.0^13,17]hexacos-9-yl)-carbamate |  |  | cyclisation yield (cyclisation step): 60% of th.
8 | tert-Butyl (S)-2-[1-((S)-2-{(S)-2-[(2S,4R)-2-((S)-2-benzyloxycarbonylamino-2-carboxy-ethoxycarbonyl)-4-methyl-pyrrolidin-1-yl]-1-methyl-2-oxo-ethylcarbamoyl}-piperidin-1-yl)-methanoyl]-pyrrolidine-1-carboxylate |  | 91% of th. | 
9 | tert-Butyl (S)-2-[((S)-1-{(S)-2-[(S)-2-((S)-2-benzyloxycarbonylamino-2-carboxyethoxycarbonyl)-pyrrolidin-1-yl]-1-methyl-2-oxo-ethylcarbamoyl}-ethyl)-methylcarbamoyl]-pyrrolidine-1-carboxylate |  | 94% of theory | 
10 | tert-Butyl (S)-2-{1-[(S)-2-((S)-2-{(2S,4R)-2-[(S)-2-benzyloxycarbonylamino-2-(2-oxo-2-phenylethoxycarbonyl)-ethoxycarbonyl]-4-methyl-pyrrolidin-1-yl}-1-methyl-2-oxo-ethylcarbamoyl)-piperidin-1-yl]-methanoyl}-pyrrolidine-1-carboxylate | 71% of th. |  | 
11 | tert-Butyl (S)-2-{[(S)-1-((S)-2-{(S)-2-[(S)-2-benzyloxycarbonylamino-2-(2-oxo-2-phenyl-ethoxycarbonyl)-ethoxycarbonyl]-pyrrolidin-1-yl}-1-methyl-2-oxo-ethylcarbamoyl)-ethyl]-methyl-carbamoyl}-pyrrolidine-1-carboxylate | 83% of th. |  | 
12 | tert-Butyl [(S)-2-(3,5-difluorophenyl)-1-((3S,7S,13S,16S,19S)-13,16,17-trimethyl-2,6,12,15,18-pentaoxo-5-oxa-1,11,14,17-tetraaza-tricyclo[17.3.0.0^7,11]docos-3-ylcarbamoyl)-ethyl]-carbamate | 57% of th. |  | 
13 | tert-Butyl [(S)-2-(3,5-difluorophenyl)-1-((3S,9S,13S,15R,19S,22S)-15,19-dimethyl-2,8,12,18,21-pentaoxo-11-oxa-1,7,17,20-tetraaza-tetracyclo-[20.4.0.0^3,7.0^13,17]hexacos-9-ylcarbamoyl)-ethyl]-carbamate | 97% of th. |  | 
